Assay results published in publication PMC2229861.
Results are given in words; binding and its absence hold for the method and conditions named. Binding seen in cells or lysates may run through a third protein. Binding can be weak; no strength is given. Tags and fused reporters may be left off the sequences shown.

Target: GST-Abi1-SH3 (aa 330-480)
Experiment: pull-down; total cellular lysates (1 mg) of transfected 293T cells incubated with 1.5 μM immobilized GST-Abi1, GST-Abi1-SH3 (aa 330-480) or GST; bound proteins immunoblotted with GFP antibody; only the target purified

binding: binds
B1: GFP-N-terminal fragment of mDia2 (NT-mDia2, aa 1-550) (domain or fragment, UniProt Q9Z207 1-550)
chain: MERHRARALGRDSKSSRRKGLQSAPPAGPYEPGEKRPKLHLNIRTLTDDMLDKFASIRIPGSKKERPPLPHLKTVSGISDSSSLSSETMENNPKALPESEVLKLFEKMMEDMNLNEDKKAPLREKDFGIKKEMVMQYINTASKTGSLRSSRQISPQEFLHELKMGYTDERLFTYLESLRVSLTSHPVSWVQSFGHEGLGLLLDILEKLINGQIQEKVVKKTQHKVIQCLRALMNTQYGLERIMSDKRSLSLLAKAMDPRQPAMMADVVKLLSAVCIVGEESILEEVLEALTSAGEERKIDRFFSIVEGLRHNSVNLQVACMQLINALVTSPDDLDFRLHLRNEFMRCGLKEILPNLKGIKNDGLDIQLKVFDEHKEEDLSEFFHRLEDIRAELDEASDVYSMLWDTVKETRAEGHFLSILQHLLLIRNDRFIREQYFKLIDECVSQIVLHRDGTDPDFTYRKRLDLDLSQFVDVCIDQAKLDEWEEKASEHCKKFEKECTDHQETQAQLQKREAKINELQAELQAFKSQFGALPPGTKIPLQPSVEGEAG
